PubChem BioAssay AID504774 | Drosophila RNAi Screening Center, 2011
Test: 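Fly genes whose loss alters survival after alkylation damage to DNA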 (primary screen). Cells: Drosophila Kc167 cells. Reagent: long dsRNA against Drosophila genes, about 0.25 µg dsRNA per well. Duration: about 6 days: 3 days knock-down, then 3 days with or without MMS. Treatment: methyl methanesulphonate 0.004% (w/v) for 3 days after knock-down. Measurement: 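Viability in wells given MMS, read as ATP luminescence, normalised by quantiles plate by plate and averaged across replicates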. Scale: mean viability with MMS and viability with MMS: higher = more surviving cells after MMS.
The screen tested about 23,000 reagents; this is a random part of those that have a named target and a result. 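Values are quantile-normalised luminescence on an arbitrary scale; higher means more cells surviving MMS.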 Reagents against one gene are numbered here. A plus sign joins genes that one reagent is predicted to hit.

no.	target	reagent	mean viability with MMS	viability with MMS, replicate 1	viability with MMS, replicate 2
1	CG14422	1	3.46e6	3.94e6	3.92e6
2	aPKC (atypical protein kinase C)	1	3.69e6	4.08e6	4.17e6
3	aPKC (atypical protein kinase C)	2	3.51e6	4.05e6	3.87e6
4	CG2875	1	3.48e6	3.91e6	3.99e6
5	ppk23 (pickpocket 23)	1	3.45e6	3.88e6	3.94e6
6	CG42390	1	3.29e6	3.71e6	3.79e6
7	CG42390	2	3.52e6	3.95e6	4.07e6
8	CG42390	3	3.18e6	3.59e6	3.52e6
9	CG8034	1	3.38e6	3.78e6	3.82e6
10	fz3 (frizzled 3)	1	3.64e6	4.18e6	4.06e6
11	CG31140	1	3.63e6	4.06e6	4.15e6
12	CG31140	2	3.61e6	4.06e6	4.11e6
13	CG31140	3	3.62e6	3.97e6	4.24e6
14	CG17712	1	3.57e6	4.09e6	4.02e6
15	CG13594	1	3.44e6	3.89e6	3.89e6
16	CG13594	2	3.27e6	3.58e6	3.81e6
17	E(spl)mbeta-HLH (Enhancer of split mbeta, helix-loop-helix)	1	3.71e6	4.11e6	4.26e6
18	Cpes (Ceramide phosphoethanolamine synthase)	1	3.10e6	3.65e6	2.68e6
19	CG16888	1	3.56e6	4.12e6	3.95e6
20	CG42591	1	3.55e6	4.07e6	3.97e6
21	RpL13A (Ribosomal protein L13A)	1	3.27e6	3.67e6	3.76e6
22	DnaJ-H (DnaJ homolog)	1	3.66e6	4.16e6	4.09e6
23	Asator	1	3.69e6	4.32e6	4.03e6
24	DIP-gamma (Dpr-interacting protein gamma)	1	3.58e6	3.91e6	4.21e6
25	CG12546 + CG14452	1	3.40e6	3.80e6	3.86e6
26	Gapvd1 (GTPase activating protein and VPS9 domains 1)	1	3.40e6	3.83e6	3.89e6
27	Jarid2 (Jumonji, AT rich interactive domain 2)	1	3.49e6	4.02e6	3.89e6
28	Pus7 (Pseudouridine synthase 7)	1	3.76e6	4.26e6	4.23e6
29	Plekhm1 (Pleckstrin homology and RUN domain containing M1)	1	3.40e6	3.86e6	3.80e6
30	CG6465	1	3.56e6	4.05e6	4.04e6
31	GstD11 (Glutathione S transferase D11)	1	3.42e6	3.92e6	3.87e6
32	CG8159	1	3.51e6	4.01e6	3.98e6
33	Oga (O-GlcNAcase)	1	3.64e6	4.21e6	4.01e6
34	CG11619	1	3.38e6	3.85e6	3.76e6
35	sd (scalloped)	1	3.49e6	3.96e6	3.96e6
36	sd (scalloped)	2	3.45e6	3.94e6	3.94e6

Records above whose target name begins with S or s (2):
target	reagent	mean viability with MMS	viability with MMS, replicate 1	viability with MMS, replicate 2
sd (scalloped)	1	3.49e6	3.96e6	3.96e6
sd (scalloped)	2	3.45e6	3.94e6	3.94e6

The listing continues.
no.	target	reagent	mean viability with MMS	viability with MMS, replicate 1	viability with MMS, replicate 2
37	CG15536	1	3.71e6	3.97e6	3.96e6
38	CG15536	2	3.51e6	4.05e6	3.93e6
39	CG14740	1	3.60e6	4.17e6	4.02e6
40	CG34167	1	3.52e6	4.08e6	3.92e6
41	CG11425	1	3.40e6	3.88e6	3.78e6
42	IM33 (Immune induced molecule 33)	1	3.75e6	4.16e6	4.21e6
43	Edc3 (Enhancer of decapping 3)	1	3.85e6	4.37e6	4.30e6
44	Cyp9h1 (Cytochrome P450 9h1)	1	3.69e6	3.98e6	4.37e6
45	Not3 (CCR4-NOT transcription complex subunit 3)	1	3.17e6	3.90e6	3.94e6
46	Chd64	1	3.56e6	4.02e6	4.06e6
47	CG11498	1	3.28e6	3.67e6	3.64e6
48	pHCl-1 (pH-sensitive chloride channel 1)	1	3.81e6	4.28e6	4.29e6
49	pHCl-1 (pH-sensitive chloride channel 1)	2	3.59e6	4.10e6	4.04e6
50	pHCl-1 (pH-sensitive chloride channel 1)	3	3.62e6	4.08e6	4.11e6
51	Dscam1 (Down syndrome cell adhesion molecule 1)	1	3.57e6	4.08e6	4.03e6
52	Dscam1 (Down syndrome cell adhesion molecule 1)	2	3.65e6	4.00e6	4.28e6
53	Dscam1 (Down syndrome cell adhesion molecule 1)	3	3.61e6	4.04e6	4.10e6
54	Dscam1 (Down syndrome cell adhesion molecule 1)	4	3.60e6	4.01e6	4.14e6
55	Dscam1 (Down syndrome cell adhesion molecule 1)	5	3.45e6	3.78e6	4.08e6
56	PGRP-SD (Peptidoglycan recognition protein SD)	1	3.58e6	4.04e6	4.10e6
57	CG5561	1	3.57e6	3.89e6	4.21e6
58	CG14607	1	3.41e6	3.86e6	3.89e6
59	nAChRbeta3 (nicotinic Acetylcholine Receptor beta3)	1	3.43e6	3.97e6	3.70e6
60	RpL9 (Ribosomal protein L9)	1	3.01e6	3.56e6	3.58e6
61	Vsx1 (Visual system homeobox 1)	1	3.67e6	4.17e6	4.17e6
62	Vsx1 (Visual system homeobox 1)	2	3.16e6	3.59e6	3.59e6
63	Vsx1 (Visual system homeobox 1)	3	3.66e6	3.98e6	4.32e6
64	CG32376	1	3.49e6	3.94e6	4.00e6
65	PIG-S (Phosphatidylinositol glycan anchor biosynthesis class S)	1	3.42e6	3.93e6	3.84e6
66	PIG-S (Phosphatidylinositol glycan anchor biosynthesis class S)	2	3.72e6	4.18e6	4.23e6
67	PIG-S (Phosphatidylinositol glycan anchor biosynthesis class S)	3	3.72e6	4.15e6	4.22e6
68	CG3386	1	3.50e6	3.98e6	3.95e6
